Measurements from publication PMC6660064.
These are yes or no findings as the source states them, for the method shown. Where a sequence is shown, tags or fusion partners need not be part of it.

Key:
[1] = molecular target: T1, recombinant mouse IL15Rα(33–205)-Fc chimera (muIL15RαFc) (mouse), Q60819; assay: condition: muIL15RαFc:muIL15 biolegend ratio of 29:1; SEC; proteins mixed in PBS and incubated at 37°C for 20 minutes (alternative conditions in S2 Fig: 4°C 20 h, RT 15 h, 37°C 0.5 h); molar ratios varied; Superdex 200 increase 10/300 GL, PBS, 0.75 mL/min; both purified; conditions: remark: other sources report otherwise
T1 chain: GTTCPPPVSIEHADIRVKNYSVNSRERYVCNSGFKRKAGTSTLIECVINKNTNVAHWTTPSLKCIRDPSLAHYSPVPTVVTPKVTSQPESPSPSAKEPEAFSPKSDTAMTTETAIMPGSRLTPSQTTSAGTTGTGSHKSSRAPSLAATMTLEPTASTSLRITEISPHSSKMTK

[2] = molecular target: T1, recombinant mouse IL15Rα(33–205)-Fc …; assay: condition: muIL15RαFc:muIL15 peprotech ratio of 0.8:1; SEC; proteins mixed in PBS and incubated at 37°C for 20 minutes (alternative conditions in S2 Fig: 4°C 20 h, RT 15 h, 37°C 0.5 h); molar ratios varied; Superdex 200 increase 10/300 GL, PBS, 0.75 mL/min; both purified; conditions: remark: other sources report otherwise

B1: recombinant mouse IL15 (muIL15 biolegend), P48346 49-162 (ligand)
chain: NWIDVRYDLEKIESLIQSIHIDTTLYTDSDFHPSCKVTAMNCFLLELQVILHEYSNMTLNETVRNVLYLANSTLSSNKNVAESGCKECEELEEKTFTEFLQSFIRIVQMFINTS
B1 was tested, and the binding [1] was “no binding”.

B2: recombinant mouse IL15 (muIL15 peprotech), P48346 49-162 (ligand)
chain: B1 chain
B2 was tested, and the binding [2] was “no binding”.
